Drawing on PMC7244035, this text covers binding for one molecule.

No constants are given. Whether binding was seen depends on the method and setting. Binding seen in cells or lysates may run through a third protein. A yes stands for co-enrichment or nearness to the bait. Other partners may have been found.

For the test, the target named is T1, kinesin family member 23 (KIF23), endogenous (human (endogenous in MGC-803)) (UniProt Q02241).
T1 sequence: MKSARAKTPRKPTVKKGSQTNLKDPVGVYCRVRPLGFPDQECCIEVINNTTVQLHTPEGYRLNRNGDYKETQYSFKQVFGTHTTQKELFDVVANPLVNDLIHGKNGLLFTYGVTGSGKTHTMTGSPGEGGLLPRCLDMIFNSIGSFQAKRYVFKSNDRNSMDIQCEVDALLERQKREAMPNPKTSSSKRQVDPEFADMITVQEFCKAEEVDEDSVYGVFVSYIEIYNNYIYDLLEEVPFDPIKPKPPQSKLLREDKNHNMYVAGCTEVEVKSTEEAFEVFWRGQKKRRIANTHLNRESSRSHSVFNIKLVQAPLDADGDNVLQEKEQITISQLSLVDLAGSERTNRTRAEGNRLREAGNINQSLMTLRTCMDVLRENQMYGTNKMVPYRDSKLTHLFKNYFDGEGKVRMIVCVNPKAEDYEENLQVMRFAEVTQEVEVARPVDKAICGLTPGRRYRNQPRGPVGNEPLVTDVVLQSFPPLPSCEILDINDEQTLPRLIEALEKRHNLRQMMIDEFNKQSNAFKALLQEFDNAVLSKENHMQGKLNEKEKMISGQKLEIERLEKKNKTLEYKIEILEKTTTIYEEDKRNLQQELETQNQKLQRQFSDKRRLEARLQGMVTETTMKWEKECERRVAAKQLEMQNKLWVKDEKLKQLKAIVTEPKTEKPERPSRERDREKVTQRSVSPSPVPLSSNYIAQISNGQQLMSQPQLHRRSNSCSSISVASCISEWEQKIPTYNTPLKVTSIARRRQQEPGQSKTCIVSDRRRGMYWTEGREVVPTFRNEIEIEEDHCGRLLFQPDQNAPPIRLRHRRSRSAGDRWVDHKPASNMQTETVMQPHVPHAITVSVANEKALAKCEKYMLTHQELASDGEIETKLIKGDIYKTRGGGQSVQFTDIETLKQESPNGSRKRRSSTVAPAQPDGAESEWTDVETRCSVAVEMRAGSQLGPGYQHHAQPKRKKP
As to the kind of experiment: affinity purification with mass spectrometry; IP of KIF23 from MGC-803 cells, SDS-PAGE with Coomassie blue staining, Nano-LC MS/MS.

B1: APC membrane recruitment 1 (Amer1), endogenous (protein, UniProt Q5JTC6 1-1135)
chain: METQKDEAAQAKGAAASGSTREQTAEKGAKNKAAEATEGPTSEPSSSGPGRLKKTAMKLFGGKKGICTLPSFFGGGRSKGSGKGSSKKGLSKSKTHDGLSEAAHGPEDVVSEGTGFSLPLPELPCQFPSSQSAHGALETGSRCKTSVAGATEKAVAEKFPSMPKPKKGLKGFFSSIRRHRKSKVTGAEQSEPGAKGPERVRARPHEHVSSAPQVPCFEETFQAPRKENANPQDAPGPKVSPTPEPSPPATEKMACKDPEKPMEACASAHVQPKPAPEASSLEEPHSPETGEKVVAGEVNPPNGPVGDPLSLLFGDVTSLKSFDSLTGCGDIIAEQDMDSMTDSMASGGQRANRDGTKRSSCLVTYQGGGEEMALPDDDDEEEEEEEEVELEEEEEEVKEEEEDDDLEYLWETAQMYPRPNMNLGYHPTTSPGHHGYMLLDPVRSYPGLAPGELLTPQSDQQESAPNSDEGYYDSTTPGFEDDSGEALGLVRRDCLPRDSYSGDALYEFYEPDDSLENSPPGDDCLYDLHGRSSEMFDPFLNFEPFLSSRPPGAMETEEERLVTIQKQLLYWELRREQLEAQEARAREAHAREAHAREAYTREAYGREAYAREAHTWEAHGREARTREAQAREVRCRETQVRETQARQEKPVLEYQMRPLGPSVMGLAAGVSGTSQISHRGITSAFPTTASSEPDWRDFRPLEKRYEGTCSKKDQSTCLMQLFQSDAMFEPDMQEANFGGSPRRAYPTYSPPEDPEEEEVEKEGNATVSFSQALVEFTSNGNLFSSMSCSSDSDSSFTQNLPELPPMVTFDIADVERDGEGKCEENPEFHNDEDLAASLEAFELGYYHKHAFNNYHSRFYQGLPWGVSSLPRYLGLPGLHPRPPPAAMALNRRSRSLDTAETLEMELSNSHLVQGYLESDELQAQQEDSDEEDEEEEEGEWSRDSPLSLYTEPPGAYDWPAWAPCPLPVGPGPAWISPNQLDRPSSQSPYRQATCCIPPMTMSISLSVPESRAPGESGPQLARPSHLHLPMGPCYNLQPQASQSMRARPRDVLLPVDEPSCSSSSGGFSPSPLPQAKPVGITHGIPQLPRVRPEHPQPQPTHYGPSSLDLSKERAEQGASLATSYSSTAMNGNLAK
For B1, the binding result is “binds”.
